According to article doi:10.1101/2025.06.19.657327:
No constants are given. Whether binding was seen depends on the method and setting. Binding seen in cells or lysates may run through a third protein. Some results given as binding are weak or reduced against the parent protein; the word gives no strength.

Protein sequences, listed by entry. Tags and fused reporters are not part of them.
UniProt Q9CW03: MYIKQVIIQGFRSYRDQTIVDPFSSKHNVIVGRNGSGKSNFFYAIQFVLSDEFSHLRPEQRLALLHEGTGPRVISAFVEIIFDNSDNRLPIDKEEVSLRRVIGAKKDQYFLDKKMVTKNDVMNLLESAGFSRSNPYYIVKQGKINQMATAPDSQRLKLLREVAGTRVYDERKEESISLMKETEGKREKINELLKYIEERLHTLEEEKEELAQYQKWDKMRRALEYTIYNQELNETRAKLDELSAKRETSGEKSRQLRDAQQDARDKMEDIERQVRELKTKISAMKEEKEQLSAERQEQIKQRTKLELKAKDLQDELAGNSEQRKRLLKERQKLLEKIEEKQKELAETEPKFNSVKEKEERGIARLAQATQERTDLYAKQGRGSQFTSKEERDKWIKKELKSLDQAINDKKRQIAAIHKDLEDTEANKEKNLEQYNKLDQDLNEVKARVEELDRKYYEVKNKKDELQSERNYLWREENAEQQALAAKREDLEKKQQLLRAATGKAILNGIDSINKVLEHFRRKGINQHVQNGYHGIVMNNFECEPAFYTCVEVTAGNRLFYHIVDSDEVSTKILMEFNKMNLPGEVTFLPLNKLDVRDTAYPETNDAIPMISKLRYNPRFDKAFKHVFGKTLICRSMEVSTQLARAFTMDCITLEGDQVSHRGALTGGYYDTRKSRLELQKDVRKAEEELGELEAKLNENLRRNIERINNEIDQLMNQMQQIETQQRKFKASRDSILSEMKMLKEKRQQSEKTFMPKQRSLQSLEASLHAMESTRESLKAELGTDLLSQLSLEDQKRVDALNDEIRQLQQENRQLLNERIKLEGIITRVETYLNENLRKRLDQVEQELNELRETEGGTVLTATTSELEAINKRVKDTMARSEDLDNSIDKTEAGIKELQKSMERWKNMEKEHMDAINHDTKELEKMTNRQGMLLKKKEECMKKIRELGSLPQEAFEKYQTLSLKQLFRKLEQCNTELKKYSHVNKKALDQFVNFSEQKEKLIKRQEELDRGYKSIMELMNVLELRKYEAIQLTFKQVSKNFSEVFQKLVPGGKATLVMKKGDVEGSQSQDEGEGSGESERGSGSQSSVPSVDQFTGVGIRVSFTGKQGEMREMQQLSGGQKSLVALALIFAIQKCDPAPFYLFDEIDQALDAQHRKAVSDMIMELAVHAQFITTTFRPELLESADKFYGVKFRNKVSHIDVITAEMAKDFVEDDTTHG

How the values were obtained:
[1] = biological target: T1, Satb1 (Special AT-rich Binding Protein 1) (mouse (endogenous in thymocytes)) (UniProt Q60611); experiment: co-IP
T1 sequence: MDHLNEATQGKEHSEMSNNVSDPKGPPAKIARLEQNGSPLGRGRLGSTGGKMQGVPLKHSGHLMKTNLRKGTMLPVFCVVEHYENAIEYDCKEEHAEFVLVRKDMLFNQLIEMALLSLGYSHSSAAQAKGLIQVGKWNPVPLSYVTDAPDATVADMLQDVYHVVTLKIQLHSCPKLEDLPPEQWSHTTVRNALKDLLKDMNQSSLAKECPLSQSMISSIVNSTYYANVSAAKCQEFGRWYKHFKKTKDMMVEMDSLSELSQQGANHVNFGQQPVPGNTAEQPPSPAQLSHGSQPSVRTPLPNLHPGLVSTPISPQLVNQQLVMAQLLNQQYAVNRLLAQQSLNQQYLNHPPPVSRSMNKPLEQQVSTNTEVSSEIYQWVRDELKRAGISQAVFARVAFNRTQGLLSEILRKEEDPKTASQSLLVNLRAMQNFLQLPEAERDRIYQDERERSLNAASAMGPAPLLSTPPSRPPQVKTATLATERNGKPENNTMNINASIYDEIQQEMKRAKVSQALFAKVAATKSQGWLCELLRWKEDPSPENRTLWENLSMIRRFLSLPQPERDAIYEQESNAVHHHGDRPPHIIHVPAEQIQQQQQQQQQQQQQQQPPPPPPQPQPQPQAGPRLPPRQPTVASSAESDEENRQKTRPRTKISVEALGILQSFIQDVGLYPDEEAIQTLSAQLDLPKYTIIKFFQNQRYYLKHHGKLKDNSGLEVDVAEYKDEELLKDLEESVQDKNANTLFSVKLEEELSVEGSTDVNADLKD

[2] = biological target: T1, Satb1 (Special AT-rich Binding Protein 1) (mouse (endogenous in thymocytes)); experiment: proximity ligation
[3] = biological target: T2, Smc1a (cohesin subunit) (mouse (endogenous in thymocytes)) (UniProt Q9CU62); experiment: co-IP
T2 sequence: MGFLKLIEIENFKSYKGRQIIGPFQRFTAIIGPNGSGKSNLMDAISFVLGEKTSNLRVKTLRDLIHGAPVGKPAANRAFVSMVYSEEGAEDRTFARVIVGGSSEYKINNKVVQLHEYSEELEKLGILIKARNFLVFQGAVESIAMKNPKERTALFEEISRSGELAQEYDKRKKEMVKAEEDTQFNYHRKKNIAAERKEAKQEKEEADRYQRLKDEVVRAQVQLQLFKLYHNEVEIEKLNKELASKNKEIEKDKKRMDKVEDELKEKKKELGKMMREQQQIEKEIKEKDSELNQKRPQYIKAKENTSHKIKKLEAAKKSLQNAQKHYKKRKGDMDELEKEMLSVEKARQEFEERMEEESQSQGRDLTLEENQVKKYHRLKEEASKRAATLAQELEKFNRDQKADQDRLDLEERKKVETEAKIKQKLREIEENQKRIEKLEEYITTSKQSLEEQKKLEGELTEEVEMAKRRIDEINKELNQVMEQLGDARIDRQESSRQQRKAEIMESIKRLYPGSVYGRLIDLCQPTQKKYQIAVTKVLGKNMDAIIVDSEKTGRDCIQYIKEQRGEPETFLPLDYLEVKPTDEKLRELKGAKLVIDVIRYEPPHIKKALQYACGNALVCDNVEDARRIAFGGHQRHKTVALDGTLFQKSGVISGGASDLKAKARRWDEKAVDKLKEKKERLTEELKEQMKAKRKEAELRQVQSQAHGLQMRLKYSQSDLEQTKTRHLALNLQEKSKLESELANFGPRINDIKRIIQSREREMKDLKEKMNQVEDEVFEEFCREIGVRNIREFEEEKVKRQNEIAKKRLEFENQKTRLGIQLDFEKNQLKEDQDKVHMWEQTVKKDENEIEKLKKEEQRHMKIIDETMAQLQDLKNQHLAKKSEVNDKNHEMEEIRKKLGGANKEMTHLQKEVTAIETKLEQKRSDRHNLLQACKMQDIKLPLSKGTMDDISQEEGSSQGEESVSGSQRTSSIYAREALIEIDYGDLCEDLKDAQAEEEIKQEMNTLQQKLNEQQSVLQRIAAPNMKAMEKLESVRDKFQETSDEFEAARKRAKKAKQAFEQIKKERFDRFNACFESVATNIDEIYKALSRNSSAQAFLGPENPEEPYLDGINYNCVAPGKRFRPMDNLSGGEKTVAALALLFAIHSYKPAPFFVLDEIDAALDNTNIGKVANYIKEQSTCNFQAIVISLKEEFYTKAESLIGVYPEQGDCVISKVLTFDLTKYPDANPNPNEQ

[4] = biological target: T3, Satb1 (Special AT-rich Binding Protein 1) (mouse (endogenous in thymocytes)), Q60611; experiment: co-IP; conditions: remark: other sources report otherwise
T3 chain: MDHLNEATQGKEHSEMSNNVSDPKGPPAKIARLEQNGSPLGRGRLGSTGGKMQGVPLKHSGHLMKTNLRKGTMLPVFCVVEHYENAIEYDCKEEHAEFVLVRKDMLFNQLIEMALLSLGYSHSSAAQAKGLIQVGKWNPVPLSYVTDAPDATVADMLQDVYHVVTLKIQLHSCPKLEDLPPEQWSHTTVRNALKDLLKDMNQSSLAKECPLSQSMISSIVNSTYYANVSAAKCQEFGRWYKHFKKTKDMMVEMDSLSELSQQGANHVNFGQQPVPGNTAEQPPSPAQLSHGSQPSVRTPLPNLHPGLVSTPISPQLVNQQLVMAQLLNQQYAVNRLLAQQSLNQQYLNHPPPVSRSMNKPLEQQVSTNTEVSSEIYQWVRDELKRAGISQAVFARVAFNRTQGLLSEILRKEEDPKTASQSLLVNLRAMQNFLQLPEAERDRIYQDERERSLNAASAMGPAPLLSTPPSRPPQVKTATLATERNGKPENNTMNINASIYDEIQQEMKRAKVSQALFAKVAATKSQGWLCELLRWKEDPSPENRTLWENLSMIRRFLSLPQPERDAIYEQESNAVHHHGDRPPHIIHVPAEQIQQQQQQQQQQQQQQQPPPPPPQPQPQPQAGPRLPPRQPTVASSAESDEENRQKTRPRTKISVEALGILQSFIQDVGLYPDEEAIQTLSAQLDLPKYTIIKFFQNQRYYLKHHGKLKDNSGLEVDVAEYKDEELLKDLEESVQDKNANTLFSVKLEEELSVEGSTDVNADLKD

Q: For “Smc3 (core subunit of the cohesin complex) (from UniProt Q9CW03 1-1217)”, which binding [1] is on record?
A: binds

B1: Smc1a (cohesin subunit) (protein, UniProt Q9CU62 1-1233)
chain: MGFLKLIEIENFKSYKGRQIIGPFQRFTAIIGPNGSGKSNLMDAISFVLGEKTSNLRVKTLRDLIHGAPVGKPAANRAFVSMVYSEEGAEDRTFARVIVGGSSEYKINNKVVQLHEYSEELEKLGILIKARNFLVFQGAVESIAMKNPKERTALFEEISRSGELAQEYDKRKKEMVKAEEDTQFNYHRKKNIAAERKEAKQEKEEADRYQRLKDEVVRAQVQLQLFKLYHNEVEIEKLNKELASKNKEIEKDKKRMDKVEDELKEKKKELGKMMREQQQIEKEIKEKDSELNQKRPQYIKAKENTSHKIKKLEAAKKSLQNAQKHYKKRKGDMDELEKEMLSVEKARQEFEERMEEESQSQGRDLTLEENQVKKYHRLKEEASKRAATLAQELEKFNRDQKADQDRLDLEERKKVETEAKIKQKLREIEENQKRIEKLEEYITTSKQSLEEQKKLEGELTEEVEMAKRRIDEINKELNQVMEQLGDARIDRQESSRQQRKAEIMESIKRLYPGSVYGRLIDLCQPTQKKYQIAVTKVLGKNMDAIIVDSEKTGRDCIQYIKEQRGEPETFLPLDYLEVKPTDEKLRELKGAKLVIDVIRYEPPHIKKALQYACGNALVCDNVEDARRIAFGGHQRHKTVALDGTLFQKSGVISGGASDLKAKARRWDEKAVDKLKEKKERLTEELKEQMKAKRKEAELRQVQSQAHGLQMRLKYSQSDLEQTKTRHLALNLQEKSKLESELANFGPRINDIKRIIQSREREMKDLKEKMNQVEDEVFEEFCREIGVRNIREFEEEKVKRQNEIAKKRLEFENQKTRLGIQLDFEKNQLKEDQDKVHMWEQTVKKDENEIEKLKKEEQRHMKIIDETMAQLQDLKNQHLAKKSEVNDKNHEMEEIRKKLGGANKEMTHLQKEVTAIETKLEQKRSDRHNLLQACKMQDIKLPLSKGTMDDISQEEGSSQGEESVSGSQRTSSIYAREALIEIDYGDLCEDLKDAQAEEEIKQEMNTLQQKLNEQQSVLQRIAAPNMKAMEKLESVRDKFQETSDEFEAARKRAKKAKQAFEQIKKERFDRFNACFESVATNIDEIYKALSRNSSAQAFLGPENPEEPYLDGINYNCVAPGKRFRPMDNLSGGEKTVAALALLFAIHSYKPAPFFVLDEIDAALDNTNIGKVANYIKEQSTCNFQAIVISLKEEFYTKAESLIGVYPEQGDCVISKVLTFDLTKYPDANPNPNEQ
Q: How did the binding [1] turn out when B1 was run?
A: binds

Q: What about the binding [2] of the same molecule?
A: binds

B2: Satb1 (Special AT-rich Binding Protein 1) (protein, UniProt Q60611 1-764)
chain: MDHLNEATQGKEHSEMSNNVSDPKGPPAKIARLEQNGSPLGRGRLGSTGGKMQGVPLKHSGHLMKTNLRKGTMLPVFCVVEHYENAIEYDCKEEHAEFVLVRKDMLFNQLIEMALLSLGYSHSSAAQAKGLIQVGKWNPVPLSYVTDAPDATVADMLQDVYHVVTLKIQLHSCPKLEDLPPEQWSHTTVRNALKDLLKDMNQSSLAKECPLSQSMISSIVNSTYYANVSAAKCQEFGRWYKHFKKTKDMMVEMDSLSELSQQGANHVNFGQQPVPGNTAEQPPSPAQLSHGSQPSVRTPLPNLHPGLVSTPISPQLVNQQLVMAQLLNQQYAVNRLLAQQSLNQQYLNHPPPVSRSMNKPLEQQVSTNTEVSSEIYQWVRDELKRAGISQAVFARVAFNRTQGLLSEILRKEEDPKTASQSLLVNLRAMQNFLQLPEAERDRIYQDERERSLNAASAMGPAPLLSTPPSRPPQVKTATLATERNGKPENNTMNINASIYDEIQQEMKRAKVSQALFAKVAATKSQGWLCELLRWKEDPSPENRTLWENLSMIRRFLSLPQPERDAIYEQESNAVHHHGDRPPHIIHVPAEQIQQQQQQQQQQQQQQQPPPPPPQPQPQPQAGPRLPPRQPTVASSAESDEENRQKTRPRTKISVEALGILQSFIQDVGLYPDEEAIQTLSAQLDLPKYTIIKFFQNQRYYLKHHGKLKDNSGLEVDVAEYKDEELLKDLEESVQDKNANTLFSVKLEEELSVEGSTDVNADLKD
Q: For B2, which binding [3] is on record?
A: binds

B3: Ctcf (CCCTC-binding factor), Q61164 1-736 (protein)
chain: MEGEAVEAIVEESETFIKGKERKTYQRRREGGQEEDACHLPQNQTDGGEVVQDVNSSVQMVMMEQLDPTLLQMKTEVMEGTVAPEAEAAVDDTQIITLQVVNMEEQPINIGELQLVQVPVPVTVPVATTSVEELQGAYENEVSKEGLAESEPMICHTLPLPEGFQVVKVGANGEVETLEQGELPPQEDSSWQKDPDYQPPAKKTKKTKKSKLRYTEEGKDVDVSVYDFEEEQQEGLLSEVNAEKVVGNMKPPKPTKIKKKGVKKTFQCELCSYTCPRRSNLDRHMKSHTDERPHKCHLCGRAFRTVTLLRNHLNTHTGTRPHKCPDCDMAFVTSGELVRHRRYKHTHEKPFKCSMCDYASVEVSKLKRHIRSHTGERPFQCSLCSYASRDTYKLKRHMRTHSGEKPYECYICHARFTQSGTMKMHILQKHTENVAKFHCPHCDTVIARKSDLGVHLRKQHSYIEQGKKCRYCDAVFHERYALIQHQKSHKNEKRFKCDQCDYACRQERHMIMHKRTHTGEKPYACSHCDKTFRQKQLLDMHFKRYHDPNFVPAAFVCSKCGKTFTRRNTMARHADNCAGPDGVEGENGGETKKSKRGRKRKMRSKKEDSSDSEENAEPDLDDNEEEEEPAVEIEPEPEPQPQPPPPPQPVAPAPPPAKKRRGRPPGRTNQPKQNQPTAIIQVEDQNTGAIENIIVEVKKEPDAEPAEGEEEEAQAATTDAPNGDLTPEMILSMMDR
Q: For B3, which binding [4] is on record?
A: no binding
